The source of these data is PMC4776379.

Sequences of proteins named here, by UniProt entry; tags and fusion partners are left off.
UniProt Q9UKB1, whole entry: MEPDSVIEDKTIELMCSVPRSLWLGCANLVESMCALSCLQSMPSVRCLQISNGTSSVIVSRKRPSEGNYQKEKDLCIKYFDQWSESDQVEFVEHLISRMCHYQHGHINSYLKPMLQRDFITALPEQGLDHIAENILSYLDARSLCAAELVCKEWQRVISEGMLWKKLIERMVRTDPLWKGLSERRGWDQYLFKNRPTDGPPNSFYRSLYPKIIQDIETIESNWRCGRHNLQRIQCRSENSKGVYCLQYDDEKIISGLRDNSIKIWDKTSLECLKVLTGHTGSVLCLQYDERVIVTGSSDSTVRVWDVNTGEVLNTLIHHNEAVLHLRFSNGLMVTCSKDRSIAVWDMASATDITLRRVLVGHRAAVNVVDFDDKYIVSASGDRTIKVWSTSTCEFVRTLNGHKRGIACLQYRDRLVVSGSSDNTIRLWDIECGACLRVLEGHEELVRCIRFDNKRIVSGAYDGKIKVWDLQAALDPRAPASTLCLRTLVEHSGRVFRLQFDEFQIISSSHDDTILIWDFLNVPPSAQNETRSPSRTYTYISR

No constants are given. Whether binding was seen depends on the method and setting. Binding seen in cells or lysates may run through a third protein. Some binding calls cover weakened binding; strength is not graded here.

The target in assay [1] is Rluc tagged BST-2 (human) (UniProt Q10589). Briefly: FRET or BRET; BRET2 in co-transfected 293T cells, EYFP and Rluc fusions, substrate DeepBlueC 5 μM; cells treated with DMSO or 5 µM 2-thio-6-azauridine for 24 h; HA tagged BST-2 co-expressed in the Vpu/β-TrCP2 experiment.
The next assay deals with Rluc tagged β-TrCP2 (UniProt Q9UKB1). Described as above.
Another assay deals with HA tagged BST-2 (human) (UniProt Q10589). In words: co-IP; […] (20 mM Tris–HCl pH 7.5, 200 mM NaCl, 1 % Triton X-100), […].
A further assay addresses HA tagged β-TrCP2 (UniProt Q9UKB1). The assay is described as above.

On to “EYFP tagged Vpu (S52/56N) (from UniProt P05923 1-81)”, for which, in assay [1], the binding result is given as “binds”. “EYFP tagged Vpu (from UniProt P05923 1-81)”: the binding entry (with Rluc tagged β-TrCP2; in assay [1]) was “binds” each time.

As for “Vpu (codon-optimized, from plasmid pVphu) (from UniProt P05923 1-81)”, the binding entry in the assay with HA tagged BST-2 (human) and with HA tagged β-TrCP2 was “binds” throughout.
